Measurements from PMC4318453.
Results are given in words; binding and its absence hold for the method and conditions named. Binding seen in cells or lysates may run through a third protein. Some entries that bind do so weakly or less than the wild type.

By UniProt entry, the sequences of proteins in these tests, tags left out.
UniProt P12004: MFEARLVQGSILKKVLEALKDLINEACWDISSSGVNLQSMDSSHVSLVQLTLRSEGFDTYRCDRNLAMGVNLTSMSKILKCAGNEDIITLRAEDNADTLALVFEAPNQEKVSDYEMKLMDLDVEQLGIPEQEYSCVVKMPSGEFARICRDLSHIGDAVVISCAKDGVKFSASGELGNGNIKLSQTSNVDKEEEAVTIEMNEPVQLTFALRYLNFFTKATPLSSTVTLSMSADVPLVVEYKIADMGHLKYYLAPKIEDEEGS

Legend:
FLAG-tagged PCNA = FLAG-tagged PCNA (UniProt P12004); test: co-IP; lysates of transfected HEK293 cells (PBS + 0.1% Triton X100), immunoprecipitation with anti-PCNA antibodies and protein G-agarose, western blot
[1] = biological target: endogenous PCNA of HEK293 cells (human (endogenous in HEK293)) (UniProt P12004); test: as above

B1: BKPyV agnoprotein expressed in HEK293 cells (protein, UniProt P03085 1-66)
chain: MVLRQLSRQASVKVGKTWTGTKKRAQRIFIFILELLLEFCRGEDSVDGKNKSTTALPAVKDSVKDS
- binding (FLAG-tagged PCNA): binds
- binding [1]: binds
